The inconclusive results got no clear call from the source; some entries with a clear call stand among them for comparison. Potencies beside an inconclusive call are fits to weak or partial responses and may not hold up. The source made the active and inactive calls. The call rests on the fitted dose curve; in most records, active means well fitted cell-killing curve with a large enough effect; inconclusive means small, poorly fitted or top-dose-only effect, or effect the other way; inactive means flat fitted curve, though single readings scatter.
test: qHTS screen for small molecules that inhibit ELG1-dependent DNA repair: Hit Confirmation with MMS Viability (AID 624251); details: Cell viability with MMS; series mostly up to 46.1 µM; further: nearly all actives have a fitted effect of over 60% in size
Outline: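 Viability read-out: CellTiter-Glo, 16 h after compound addition. Cell line ELG1-luc HEK293T; DNA-damaging co-treatment MMS, 10 µM final.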
Potency means the concentration at half of the fitted maximal effect.

SMILES	Potency
CC(Sc1nc(N2CCOCC2)c2c(c1C#N)CC(C)(C)OC2)C(=O)Nc1ccccc1 (stereo not given)	inconclusive: 0.0445 µM [rising, full curve]
Cc1ccc(C(=O)Nc2cccc3[nH]c(C(F)(F)F)nc23)cc1	active: 8.88 µM
O=C(Nc1ccc(Br)cc1)c1ccc(F)c(S(=O)(=O)N2CCN(c3ccccn3)CC2)c1	inconclusive: 31.5 µM [cytotoxic, single point]
CCCC(=O)N1CCc2cc(OC)c(OC)cc2C1COc1ccccc1OC (stereo not given)	inconclusive: 9.97 µM [cytotoxic, single point]
Cc1cc(NC(=O)c2cnn3c(C(F)(F)F)cc(-c4ccccc4)nc23)no1	inconclusive: 12.6 µM [cytotoxic, partial curve]

Source: PubChem BioAssay (NCATS)
